Each structure is given as a SMILES string. The list shows a part of the results. Values are raw readings; no control value is given beside them.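 In the initial screen, polymyxin B was used at a concentration that permeabilizes Salmonella's outer membrane but not its inner membrane. Maximum growth was set by DMSO wells with or without polymyxin B. Since plates varied, data were ranked per plate, and compounds giving the lowest OD600 advanced as hits.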

This note sets out measurements from the supplement of paper PMC12889115.

The assay concerns Salmonella enterica serovar Typhimurium SL1344. Nature of the assay: bacterial growth OD600 after 18 h with compound and polymyxin B; higher = more bacterial growth (less inhibition). As to conditions: 50 µM, Mueller-Hinton broth.

In the case of `CN1CCC(N2CCC(Oc3cccc(C(=O)NCCc4ccccc4)c3)CC2)CC1`, where the note is “polymyxin B 0.75 µg/mL”, the “bacterial growth OD600” value stood at 0.966.
Regarding `Cc1ncc2c(c1CNC(=O)c1ccc3c(c1)OCO3)CCN(C(=O)CSc1ccccc1)C2`, the “bacterial growth OD600” value (polymyxin B 0.75 µg/mL) was determined as 0.747.
As for `O=C1CCC(C(=O)N2CCc3c(Cl)cccc3C2)CN1Cc1ccccn1` (centres undefined), the “bacterial growth OD600” value (polymyxin B 1 µg/mL) came out at 1.3.
Same read-out and setting: the result for `COc1ccc(CC(=O)NC2CC(=O)N(CC3CCCCC3)C2)cc1` (centres undefined) reads 0.861.
Take `O=C(CCC1(Cc2cccs2)CCC(=O)N1)NCc1csc(-c2ccccc2)n1` (centres undefined): the “bacterial growth OD600” value (polymyxin B 0.75 µg/mL) worked out at 0.831.
As for `O=C1CCC(C(=O)N2CCC(N3CCSCC3)CC2)CN1CCc1ccccn1` (centres undefined), under “polymyxin B 1 µg/mL”, the “bacterial growth OD600” value was 0.88.
`COc1ccc(-c2cn3c(C(=O)N(C)CCc4ccccn4)csc3n2)cc1F`: under “polymyxin B 0.75 µg/mL”, the “bacterial growth OD600” value turned out to be 0.835.
`Cc1c[nH]c(C(=O)N2CCC(C3CCN(Cc4cccnc4)CC3)C2)n1` (centres undefined): the “bacterial growth OD600” value (polymyxin B 0.75 µg/mL) worked out at 0.877.
For the compound `CN(Cc1cccc2cnccc12)C(=O)c1cc(COc2ccc(F)cc2F)on1`, the “bacterial growth OD600” value (polymyxin B 1 µg/mL) was determined as 0.493.
